{"source": "PubChem BioAssay AID504808 (Drosophila RNAi Screening Center, 2011)", "assay": "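Genes whose loss lifts activity of an E2F-responsive reporter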 (primary screen)", "cells": "Drosophila S2 cells", "knock-down reagent": "long dsRNA against Drosophila genes", "read-out": "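Firefly luciferase driven by E2F sites, normalised to Renilla luciferase on the same minimal promoter, measured by plate reader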", "reading the numbers": "E2F firefly: higher = more E2F reporter activity; Renilla normaliser: higher = more normaliser reporter signal", "hit rule": "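Called active if the normalised E2F reporter went up by over 50%; the cutoff is arbitrary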", "note": "The deposit covers about 21,000 reagents; this is a random part of those that have a named target and a result. Over the whole deposit, 18 (0.084%) got an active call. 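Raw counts without plate normalisation, one of two replicates; the ratio scores behind the calls were not deposited.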 Reagent sequences are not shown. The record does not give: the amount of reagent, the time to read-out."}
{"gene knocked down": "EMC1 (GeneID 40933)", "DRSC id": "DRSC15455", "E2F firefly, rep 1": 75928, "Renilla normaliser, rep 1": 3119, "activity call": "inactive"}
{"gene knocked down": "CG5402 (GeneID 43306)", "DRSC id": "DRSC15792", "E2F firefly, rep 1": 1.04e5, "Renilla normaliser, rep 1": 6273, "activity call": "inactive"}
{"gene knocked down": "Rx (GeneID 37367)", "DRSC id": "DRSC03837", "E2F firefly, rep 1": 1.15e5, "Renilla normaliser, rep 1": 5072, "activity call": "inactive"}
{"gene knocked down": "Rx (GeneID 37367)", "DRSC id": "DRSC04652", "E2F firefly, rep 1": 1.00e5, "Renilla normaliser, rep 1": 4736, "activity call": "inactive"}
{"gene knocked down": "CG14645 (GeneID 50160)", "DRSC id": "DRSC12231", "E2F firefly, rep 1": 1.34e5, "Renilla normaliser, rep 1": 6570, "activity call": "inactive"}
{"gene knocked down": "Or98a (GeneID 43341)", "DRSC id": "DRSC16774", "E2F firefly, rep 1": 1.29e5, "Renilla normaliser, rep 1": 5688, "activity call": "inactive"}
{"gene knocked down": "aPKC (GeneID 47594)", "DRSC id": "DRSC05515", "E2F firefly, rep 1": 1.34e5, "Renilla normaliser, rep 1": 4700, "activity call": "inactive"}
{"gene knocked down": "aPKC (GeneID 47594)", "DRSC id": "DRSC07639", "E2F firefly, rep 1": 97367, "Renilla normaliser, rep 1": 4140, "activity call": "inactive"}
{"gene knocked down": "qjt (GeneID 39952)", "DRSC id": "DRSC10060", "E2F firefly, rep 1": 1.73e5, "Renilla normaliser, rep 1": 8527, "activity call": "inactive"}
{"gene knocked down": "TwdlQ (GeneID 43214)", "DRSC id": "DRSC14745", "E2F firefly, rep 1": 1.04e5, "Renilla normaliser, rep 1": 4998, "activity call": "inactive"}
{"gene knocked down": "CG1532 (GeneID 33076)", "DRSC id": "DRSC20516", "E2F firefly, rep 1": 1.51e5, "Renilla normaliser, rep 1": 5122, "activity call": "inactive"}
{"gene knocked down": "CG17211 (GeneID 34639)", "DRSC id": "DRSC02587", "E2F firefly, rep 1": 92832, "Renilla normaliser, rep 1": 3958, "activity call": "inactive"}

Looked up above:
Rx (GeneID 37367) [DRSC04652], E2F firefly, rep 1 = 1.00e5
Result of Rx (GeneID 37367) [DRSC03837] in “Renilla normaliser, rep 1”: 5072
